These are literature values, as cited in article PMC8541513, “Stereoselective Synthesis of the Di-Spirooxindole Analogs Based Oxindole and Cyclohexanone Moieties as Potential Anticancer Agents” (Molecules, 2021).

The data set concerns PC-3. Further details: method as in Barakat et al. (15). To be noted: ref Barakat et al. (15); cited from earlier work.

Regarding `N.N.[Cl][Pt][Cl]` [cisplatin], the half-maximal inhibitory concentration (IC50) was 5 µM.
